PubChem BioAssay AID330 (DTP/NCI, 2004)
The list shows only some results of the screen, not a fair sample: it is rich in T/C values a quarter to a half above the control, in often repeated tests (any T/C) and in doses without a T/C. Other doses and runs of a compound stand elsewhere. T/C gives the treated animals as a percentage of the vehicle group. Some entries give survivors of the animals treated and no T/C: the source files T/C as zero there, which appears to mark a toxic dose or a test without result, not a measured value. Some doses without a T/C left all or most animals alive at the check, yet need not have been tolerated: the source hardly ever lists a survival T/C far under the control, and the zero likely stands for such cases as well. Counts of survivors are from the toxicity check (mostly the fifth day) where no day follows; animals may have died later. Schedule codes are those of the source, taken here to give the interval after Q, in days (D) or hours (H), and the number of doses after X. Some schedules carry Z or #; the key to these is not given. For survival time, the PubChem record calls one and a half times the control and up active, and a quarter to a half above the control has no call in these data; cut-offs in other NCI protocols can differ. Some doses were run more than once; their values stand side by side, smallest first. Additions like (4×) say how often a value occurs here. Some T/C values carry the count of animals alive at the toxicity check (mostly the fifth day); where none is given, no animal had died by that day.

Tested on: P388 leukemia ip, CD2F1 mice, survival T/C
Assay: NCI In Vivo Anticancer Drug Screen. Data for tumor model P388 Leukemia (intraperitoneal) in CD2F1 (CDF1) mice
Settings: T/C endpoint: median survival time, higher T/C = longer survival
[1] = dose: 10.0 mg/kg/injection, schedule: Q01DX009 (ip), vehicle: other
[2] = dose: 20.0 mg/kg/injection, schedule: Q01DX009 (ip), vehicle: other
[3] = dose: 50.0 mg/kg/injection, schedule: Q01DX005 (ip), vehicle: saline with Tween-80
[4] = dose: 200.0 mg/kg/injection, schedule: Q01DX005 (ip), vehicle: saline with Tween-80
[5] = dose: 200.0 mg/kg/injection, schedule: Q01DX009 (ip), vehicle: saline with Tween-80
[6] = dose: 200.0 mg/kg/injection, schedule: Q01DX005 (ip), vehicle: Klucel (hydroxypropylcellulose) (HPC)

In the case of `c1ccc2c(NCCCCCCCCNc3c4ccccc4nc4ccccc34)c3ccccc3nc2c1`, the T/C (dose: 0.63 mg/kg/injection, schedule: Q01DX009 (ip), vehicle: other) is reported as 136 % of control, the T/C (dose: 1.25 mg/kg/injection, schedule: Q01DX009 (ip), vehicle: other) is reported as 129 (2×), 133, 136, 141 % of control and the T/C (dose: 1.25 mg/kg/injection, schedule: Q## X009 (ip), vehicle: lactic acid) is reported as 138 % of control. The T/C (dose: 2.5 mg/kg/injection, schedule: Q01DX009 (ip), vehicle: other) was 123, 128, 140, 148, 155 % of control, the T/C (dose: 2.5 mg/kg/injection, schedule: Q01DX009 (ip), vehicle: saline) was 135 % of control and the T/C (dose: 3.75 mg/kg/injection, schedule: Q01DX009 (ip), vehicle: other) was 140 % of control. For the same compound, the T/C (dose: 5.0 mg/kg/injection, schedule: Q01DX009 (ip), vehicle: other) was 134, 139, 140, 145, 164 % of control, the T/C (dose: 5.0 mg/kg/injection, schedule: Q01DX009 (ip), vehicle: saline) was 137 % of control and the T/C (dose: 5.0 mg/kg/injection, schedule: Q## X009 (ip), vehicle: lactic acid) was 147 % of control. The T/C (dose: 7.5 mg/kg/injection, schedule: Q01DX009 (ip), vehicle: other) was 140 % of control, the T/C [1] was 101, 140, 150, 152 % of control and the survivor count [1] was 6 of 6. For the same compound, the T/C (dose: 10.0 mg/kg/injection, schedule: Q04DX003 (ip), vehicle: Klucel (hydroxypropylcellulose) (HPC)) was 126 % of control, the survivor count (dose: 10.0 mg/kg/injection, schedule: Q## X009 (ip), vehicle: lactic acid) was 4 of 6 and the survivor count (dose: 15.0 mg/kg/injection, schedule: Q01DX009 (ip), vehicle: other) was 2 of 6. For the same compound, the T/C [2] was 149 [4 of 6 alive] and 151 % of control, the survivor count [2] was 1 of 6 and the T/C (dose: 20.0 mg/kg/injection, schedule: Q01DX009 (ip), vehicle: saline) was 141 % of control. For the same compound, the T/C (dose: 20.0 mg/kg/injection, schedule: Q04DX003 (ip), vehicle: Klucel (hydroxypropylcellulose) (HPC)) was 129 % of control, the survivor count (dose: 20.0 mg/kg/injection, schedule: Q## X009 (ip), vehicle: lactic acid) was 0 of 6 and the T/C (dose: 40.0 mg/kg/injection, schedule: Q04DX003 (ip), vehicle: Klucel (hydroxypropylcellulose) (HPC)) was 133 % of control. The survivor count (dose: 160.0 mg/kg/injection, schedule: Q04DX003 (ip), vehicle: Klucel (hydroxypropylcellulose) (HPC)) was 4 of 6.
With `CCC(/C=C/c1ccccc1)=N\NC(=O)c1ccc(C)cc1` the survivor count [3] was 6 of 6, the survivor count (dose: 100.0 mg/kg/injection, schedule: Q01DX005 (ip), vehicle: saline with Tween-80) was 6 of 6 and the survivor count [4] was 6 of 6.
In the case of `CN=C(N)NCCCCCCCCNC(N)=NC`, the T/C (dose: 12.5 mg/kg/injection, schedule: Q01DX009 (ip), vehicle: saline) is reported as 135 % of control and the survivor count (dose: 25.0 mg/kg/injection, schedule: Q01DX009 (ip), vehicle: saline with Tween-80) is reported as 6 of 6.
In the case of `C[P+](CCOC(=O)NC(Cc1ccccc1)C(=O)O)(c1ccccc1)c1ccccc1` (stereo unspecified), the survivor count [5] is reported as 0 of 6.
`CCCCCc1ccccc1O` was tested, and the survivor count [5] was 1 of 6.
With `C/C(=C\C(=O)c1cccc(F)c1)N1CCN(c2cccc(C(F)(F)F)c2)CC1` the survivor count [6] was 4 of 6.
In the case of `CC(=O)C1=C(C)O/C(=C/c2ccc(Cl)cc2)C1=O`, the survivor count [4] is reported as 6 of 6.
With `CSc1nc(Cl)cc(=O)n1C` the survivor count (dose: 50.0 mg/kg/injection, schedule: Q01DX005 (ip), vehicle: Klucel (hydroxypropylcellulose) (HPC)) was 3 of 6, the survivor count (dose: 100.0 mg/kg/injection, schedule: Q01DX005 (ip), vehicle: Klucel (hydroxypropylcellulose) (HPC)) was 2 of 6 and the survivor count [6] was 0 of 6.
With `Cc1nsc2[nH]c(=O)n(Nc3ccc(O)cc3)c(=O)c12` the T/C [3] was 149 % of control, the T/C [4] was 147 % of control and the survivor count (dose: 400.0 mg/kg/injection, schedule: Q01DX005 (ip), vehicle: saline with Tween-80) was 0 of 6.
`ClCCN(CCCl)c1ccc(CCCCN2CCCCC2)cc1` was tested, and the T/C (dose: 1.56 mg/kg/injection, schedule: Q01DX009 (ip), vehicle: Klucel (hydroxypropylcellulose) (HPC)) was 129 % of control, the T/C (dose: 3.13 mg/kg/injection, schedule: Q01DX009 (ip), vehicle: Klucel (hydroxypropylcellulose) (HPC)) was 147 % of control and the T/C (dose: 6.25 mg/kg/injection, schedule: Q01DX009 (ip), vehicle: Klucel (hydroxypropylcellulose) (HPC)) was 126 % of control. For the same compound, the T/C (dose: 12.5 mg/kg/injection, schedule: Q01DX009 (ip), vehicle: Klucel (hydroxypropylcellulose) (HPC)) was 132 % of control, the survivor count (dose: 25.0 mg/kg/injection, schedule: Q01DX009 (ip), vehicle: Klucel (hydroxypropylcellulose) (HPC)) was 6 of 6 and the survivor count (dose: 50.0 mg/kg/injection, schedule: Q01DX009 (ip), vehicle: Klucel (hydroxypropylcellulose) (HPC)) was 0 of 6. For the same compound, the survivor count (dose: 100.0 mg/kg/injection, schedule: Q01DX009 (ip), vehicle: Klucel (hydroxypropylcellulose) (HPC)) was 0 of 6 and the survivor count (dose: 200.0 mg/kg/injection, schedule: Q01DX009 (ip), vehicle: Klucel (hydroxypropylcellulose) (HPC)) was 0 of 6.
With `CC(NC(=O)OC(C)(C)C)C(=O)NC(C)C(=O)OCc1ccccc1` (stereo unspecified) the survivor count [4] was 4 of 5.
